The shares of active, inactive and inconclusive entries below differ from those in the screen. Potencies of inconclusive entries are doubtful fits and often do not repeat. Activity calls are given as the source filed them. How the source made its calls: active means hit-call score of the fitted dose curve at least 0.9, where 1 is the maximum; inconclusive means response in the unintended direction; inactive means score below 0.9.
Each molecule was assayed on xenobiotic metabolism (CYP1A1), CYP1A1 (gene 1543) (assay: CLD_CYP1A1_6hr: CellzDirect (CLD) Gene Expression Assay for xenobiotic metabolism (CYP1A1) at 6 hours (AID 2283661);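 on AC50: potency for transcript induction above DMSO vehicle baseline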).
Protocol: CLD_6hr is a cell-based, multiplexed-readout assay that uses hepatocyte, a human liver primary cell, with measurements taken at 6 hours after chemical dosing in a 96-well plate.CLD_CYP1A1_6hr is one of 16 assay component(s) measured or calculated from the CLD_6hr assay. It is designed to make measurements of mRNA induction, a form of inducible reporter, as detected with chemiluminescence signals by Quantitative Nuclease Protection Assay (qNPA) technology.Data from the assay component CLD_CYP1A1_6hr was analyzed at the endpoint, CLD_CYP1A1_6hr, in the positive analysis fitting direction relative to DMSO as the negative control and baseline of activity. Using a type of inducible reporter, gain-of-signal activity can be used to understand changes in the reporter gene as they relate to the gene CYP1A1. Furthermore, this assay endpoint can be referred to as a primary readout. To generalize the intended target to other relatable targets, this assay endpoint is annotated to the cyp intended target family, where subfamily is xenobiotic metabolism.
Human hepatocyte cultures were treated daily for two consecutive days with fresh dosing solutions containing appropriate concentrations of the 320 ToxCast chemicals (chemical identities were blinded to CellzDirect and other ToxCast collaborators), vehicle control (0.2% DMSO), and positive control inducers as summarized in Table 1. Due to the large number of treatment groups and chemicals examined, the ToxCast chemicals were divided into two groups (spanning two independent cultures of hepatocytes from separate donor preparations (Hu778: ToxCast plates 1 and 2; Hu776: ToxCast plates 3 and 4). Each preparation of human hepatocyte cultures was treated with respective vehicle control, medium only control, set of six positive controls/reference chemicals for the five hepatic receptor pathways, and a subset of eight of the ToxCast chemicals (indoxacarb, pyrithiobac-sodium, norflurazon, cyhalofop-butyl, methomyl, thiram, acetochlor, and propiconazole). These replicate data, coupled with internal replicates designed within the blinded ToxCast chemical library, provided additional data to evaluate interindividual differences between hepatocyte preparations and their potential impact on chemical profiles.Cell morphology and integrity were evaluated using phase-contrast microscopy as an indicator of hepatocyte cell health (Tyson & Green, 1987). Cultures for each treatment group (i.e., media, vehicle [0.2% DMSO], positive control inducers [multiple concentrations], and the ToxCast chemicals [multiple concentrations]) were observed and cell morphology was assessed relative to vehicle control cultures at each harvest time point (0, 6, 24, or 48 h). […] Images were evaluated at the conclusion of the study to assess changes in cell integrity and account for the effects of chemical exposure on uncharacteristic changes in concentration-dependent gene expression profiles. The results from these determinations of apparent cytotoxicity were annotated (yes/no) alongside the corresponding qNPA data for reference.At the conclusion of each treatment period, hepatocyte cultures (96-well) were washed with 1 volume of HBSS, lysed by addition of 25 ul ArrayPlate lysis buffer (HTG, Tucson, AZ), and 70 ul/well of Denaturation Oil, denatured by incubation at 95C for 10 min, and frozen at approximately -70C until analysis by nuclease protection assay (qNPA) (Roberts et al., 2007). For qNPA analysis, cell lysates were thawed at 50C for approximately 30 min, qNPA probes were added, and samples were incubated at 95C for 10 min to begin the detection process by denaturing the target RNA, dissociating the duplexes and secondary structure hybridization. At the conclusion of the hybridization period, S1 nuclease reagent was added to each sample to digest all nonprotected nucleotides at 50C for 60-90 min. […]

SMILES | AC50 | outcome
CCOC1Oc2ccc(OS(C)(=O)=O)cc2C1(C)C (stereo not given) | active: 3970 nM | –
OC(c1ccc(Cl)cc1)(c1cncnc1)c1ccccc1Cl (stereo not given) | – | inactive
S=C1NCCN1 | inconclusive: 41.4 nM | –
N#CSCSC#N | inconclusive: 1890 nM | –
CCCCOCN(C(=O)CCl)c1c(CC)cccc1CC | active: 5210 nM | –
CCc1cccc(C)c1N(C(=O)CCl)C(C)COC (stereo not given) | inconclusive: 0.243 nM | –
Nc1nc(N)nc(NC2CC2)n1 | – | inactive
Cc1nn(-c2cc(NS(C)(=O)=O)c(Cl)cc2Cl)c(=O)n1C(F)F | – | inactive
O=c1ccc(=O)[nH][nH]1 | inconclusive: 20000 nM | –
CN1COCN(Cc2cnc(Cl)s2)C1=N[N+](=O)[O-] | inconclusive: 0.4 nM | –
CC(C)=CC1C(C(=O)OCc2coc(Cc3ccccc3)c2)C1(C)C (stereo not given) | – | inactive
C=C(C)[C@H]1Cc2c(ccc3c2O[C@@H]2COc4cc(OC)c(OC)cc4[C@@H]2C3=O)O1 | inconclusive: 25.9 nM | –
COC(=O)N(OC)c1ccccc1COc1ccn(-c2ccc(Cl)cc2)n1 | inconclusive: 20000 nM | –
CCC(C)Nc1c([N+](=O)[O-])cc(C(C)(C)C)cc1[N+](=O)[O-] (stereo not given) | active: 3410 nM | –
CON=C(C(=O)OC)c1ccccc1CON=C(C)c1cccc(C(F)(F)F)c1 | – | inactive
O=S(=O)(O)C(F)(F)C(F)(F)C(F)(F)C(F)(F)C(F)(F)C(F)(F)C(F)(F)C(F)(F)F | – | inactive
CCCOc1nn(C(=O)NS(=O)(=O)c2ccccc2C(=O)OC)c(=O)n1C | inconclusive: 43.4 nM | –
N#Cc1c(Cl)cccc1Cl | inconclusive: 527 nM | –
CCCCC(C#N)(Cn1cncn1)c1ccc(Cl)cc1 (stereo not given) | active: 3970 nM | –
COc1cc(OC)nc(Sc2cccc(Cl)c2C(=O)O)n1 | inconclusive: 1.07 nM | –
CCCC(=NOCC)C1=C(O)CC(CC(C)SCC)CC1=O (stereo not given) | inconclusive: 3.04 nM | –
CC1COC(Cn2cncn2)(c2ccc(Oc3ccc(Cl)cc3)cc2Cl)O1 (stereo not given) | – | inactive
CC(=NC#N)N(C)Cc1ccc(Cl)nc1 | inconclusive: 3.81 nM | –
COCc1cnc(C2=NC(C)(C(C)C)C(=O)N2)c(C(=O)O)c1 (stereo not given) | inconclusive: 0.4 nM | –
CC(C)Nc1nc(Cl)nc(NC(C)C)n1 | active: 4730 nM | –
Cc1ccc(N=CN(C)C=Nc2ccc(C)cc2C)c(C)c1 | inconclusive: 20000 nM | –
CNc1cnn(-c2cccc(C(F)(F)F)c2)c(=O)c1Cl | active: 3970 nM | –
N#Cc1c[nH]cc1-c1cccc2c1OC(F)(F)O2 | active: 900 nM | –
CCNc1nc(Cl)nc(NC(C)(C)C#N)n1 | inconclusive: 20000 nM | –
COc1cc(Cl)c(OC)cc1Cl | inconclusive: 3970 nM | –

Reprinted at random: 2 compounds from above, in no set order.
SMILES | AC50 | outcome
O=c1ccc(=O)[nH][nH]1 | inconclusive: 20000 nM | –
COc1cc(OC)nc(Sc2cccc(Cl)c2C(=O)O)n1 | inconclusive: 1.07 nM | –

— PubChem BioAssay (EPA / NIEHS)
